# Test results reported in the supplement of paper PMC4749390.
# Counter-ions that a name gives are not always drawn. Some of the results follow. Repeats in this data set agree poorly, so a single value says little.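 JEG3 cells stably express tetracycline-inducible wild-type human LRH-1, a highly sumoylated nuclear receptor. SUMO-sensitive transcripts APOC3 and MUC1, increased by SUMO-deficient LRH-1 or UBC9 knockdown, were quantified by RT-qPCR relative to TBP and DMSO controls. Primary hits had robust Z-scores above +2 or below -2, before toxicity and TBP filtering.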
# Tested on: JEG3 expressing hLRH-1
# Assay: MUC1 transcript change (ddCt vs TBP and DMSO), Z-score over library; higher = higher MUC1 expression
# Conditions: 10 µM; time (hr): 24
row,Structure (SMILES),MUC1 transcript change (Z-score)
1,O=C(O)c1ccc(S(=O)(=O)N(Cl)Cl)cc1 [halazone],1.71
2,CC[n+]1c(-c2ccccc2)c2cc(N)ccc2c2ccc(N)cc21 [homidium bromide],1.14
3,Cc1cc(N)c2ccccc2[n+]1CCCCCCCCCC[n+]1c(C)cc(N)c2ccccc21 [dequalinium chloride],-0.431
4,OC[C@@H](O)C(O[C@@H]1O[C@H](CO)[C@H](O)[C@H](O)[C@H]1O)[C@H](O)[C@@H](O)CO (stereo partly drawn) [d-lactitol monohydrate],0.265
5,Oc1ccc(Cl)c2c1CCC2 [chlorindanol],0.571
6,COc1cc2c3cc1Oc1cc(ccc1O)C[C@@H]1c4c(cc(OC)c(O)c4Oc4ccc(cc4)C[C@@H]3N(C)CC2)CC[N+]1(C)C [tubocurarine chloride],0.514
7,COc1ccc(Cl)cc1C(=O)NCCc1ccc(S(=O)(=O)NC(=O)NC2CCCCC2)cc1 [Glibenclamide],-0.515
8,CC(=O)OCC(=O)[C@H]1CC[C@H]2[C@@H]3CCC4=CC(=O)CC[C@]4(C)[C@H]3CC[C@]12C [desoxycorticosterone acetate],0.838
9,CC(C)CCCC(C)NC(C)C (centres undefined) [iproheptine],0.0959
10,CC1(C)[C@@H](OC(=O)CCC(=O)O)CC[C@]2(C)[C@H]3C(=O)C=C4[C@@H]5C[C@@](C)(C(=O)O)CC[C@]5(C)CC[C@@]4(C)[C@]3(C)CC[C@@H]12 [carbenoxolone sodium],0.187
11,CCN(CC)CCOCCOC(=O)C(CC)(CC)c1ccccc1 [oxelaidin citrate],0.45
12,CCN(CC)CCOc1ccc(/C(=C(\Cl)c2ccccc2)c2ccccc2)cc1 [clomiphene citrate],0.392
13,O=C(O)C1CSCN1 (centres undefined) [timonacic],0.268
14,CCCCc1oc2ccccc2c1C(=O)c1cc(I)c(OCCN(CC)CC)c(I)c1 [Amiodarone hydrochloride],0.249
15,CC[C@@H](CO)NCCN[C@@H](CC)CO [ethambutol hydrochloride],-0.221
16,C[C@]1(Cn2ccnn2)[C@H](C(=O)O)N2C(=O)C[C@H]2S1(=O)=O [tazobactam],-0.454
17,CC(=O)OCC(=O)[C@@]1(OC(C)=O)[C@@H](C)C[C@H]2[C@@H]3C[C@H](F)C4=CC(=O)C=C[C@]4(C)[C@@]3(F)[C@@H](O)C[C@@]21C [diflorasone diacetate],-2.13
18,COc1cc(NC(C)CCCN)c2ncccc2c1 (centres undefined) [primaquine diphosphate],1.12
19,CCOc1ccc(NC(C)=O)cc1 [phenacetin],-1.32
20,Nc1ncnc2c1ncn2[C@@H]1O[C@H](CO)[C@@H](O)[C@@H]1O [vidarabine],0.593
21,CCC1=C(C)CN(C(=O)NCCc2ccc(S(=O)(=O)NC(=O)N[C@H]3CC[C@H](C)CC3)cc2)C1=O [glimepiride],0.398
22,COc1ccc2cc([C@H](C)CO)ccc2c1 [naproxol],0.0688
23,Cc1c(Cl)cccc1Nc1ccccc1C(=O)O [tolfenamic acid],-0.0448
24,Cc1cc(=O)oc2cc(O)ccc12 [hymechrome],-0.132
25,CO/C(O)=C1\C(C)=NC(C)=C(C(=O)OC(C)C)C1c1cccc2nonc12 (centres undefined) [isradipine],-0.0974

# Three entries from above, tab-delimited.
row	Structure (SMILES)	MUC1 transcript change (Z-score)
15	CC[C@@H](CO)NCCN[C@@H](CC)CO [ethambutol hydrochloride]	-0.221
16	C[C@]1(Cn2ccnn2)[C@H](C(=O)O)N2C(=O)C[C@H]2S1(=O)=O [tazobactam]	-0.454
17	CC(=O)OCC(=O)[C@@]1(OC(C)=O)[C@@H](C)C[C@H]2[C@@H]3C[C@H](F)C4=CC(=O)C=C[C@]4(C)[C@@]3(F)[C@@H](O)C[C@@]21C [diflorasone diacetate]	-2.13

# The list continues.

row,Structure (SMILES),MUC1 transcript change (Z-score)
1,COc1ccc2c3c1O[C@H]1C[C@@H](O)C=C[C@@]31CCN(C)C2 [galanthamine hydrobromide],-0.101
2,O=C(O)COC(=O)Cc1ccccc1Nc1c(Cl)cccc1Cl [aceclofenac],0.481
3,Nc1nc(NC2CC2)c2ncn([C@H]3C=C[C@@H](CO)C3)c2n1 [abacavir sulfate],-1.2
4,CC(C)c1nc(CN(C)C(=O)N[C@H](C(=O)N[C@@H](Cc2ccccc2)C[C@H](O)[C@H](Cc2ccccc2)NC(=O)OCc2cncs2)C(C)C)cs1 [ritonavir],0.437
5,CCOc1ccc2nc3cc(N)ccc3c(N)c2c1 [ethacridine lactate],-2.48
6,CN1CCCCC1CCN1c2ccccc2Sc2ccc(S(C)=O)cc21 (centres undefined) [mesoridazine besylate],-0.383
7,O=C(O)CCC(=O)OC[C@@H](NC(=O)C(Cl)Cl)[C@H](O)c1ccc([N+](=O)[O-])cc1 [chloramphenicol hemisuccinate],0.685
8,CCCCCCCCCCCCCCCCOP(=O)([O-])OCC[N+](C)(C)C [miltefosine],-0.561
9,CCNC1CN(CCCOC)S(=O)(=O)c2sc(S(N)(=O)=O)cc21 (centres undefined) [brinzolamide],0.907
10,O=C(O)CCc1nc(-c2ccccc2)c(-c2ccccc2)o1 [oxaprozin],-0.0796
11,C[C@]12CC[C@@H]3c4ccc(OS(=O)(=O)O)cc4CC[C@H]3[C@@H]1CCC2=O [estropipate],0.789
12,Nc1ccc(S(=O)(=O)Nc2ccc(Cl)nn2)cc1 [sulfachlorpyridazine],-0.0787
13,CC(C)(C)CC(C)(C)c1ccc(O)c(Cc2ccc(Cl)cc2Cl)c1 [clofoctol],0.589
14,CCOC(=O)c1ccc(N)cc1 [benzocaine],1.03
15,CN1CCC(=C2c3ccccc3CCc3cccnc32)CC1 [azatadine maleate],0.879
16,N#Cc1ccc2[nH]cc(CCCCN3CCN(c4ccc5oc(C(N)=O)cc5c4)CC3)c2c1 [vilazodone hydrochloride],0.0103
17,C[C@H](CCC(=O)O)[C@H]1CCC2C3C(CC[C@@]21C)[C@@]1(C)CC[C@@H](O)C[C@H]1C[C@H]3O (some centres undefined) [chenodiol],0.207
18,CCCc1nc(C(C)(C)O)c(C(=O)O)n1Cc1ccc(-c2ccccc2-c2nn[nH]n2)cc1 [olmesartan],0.248
19,CCCCC1=NC2(CCCC2)C(=O)N1Cc1ccc(-c2ccccc2-c2nn[nH]n2)cc1 [irbesartan],0.35
20,NC(Cc1c[nH]c2ccccc12)C(=O)O (centres undefined) [tryptophan],0.142
21,C[C@]12C=CC(=O)C=C1CCC1C2C(=O)C[C@@]2(C)C1CC[C@]2(O)C(=O)CO (some centres undefined) [prednisone],0.257
22,O=C(O)[C@H]1/C(=C/CO)O[C@@H]2CC(=O)N21 [clavulanate lithium],0.722
23,Nc1nc(S)c2[nH]cnc2n1 [thioguanine],-2.3
24,OC[C@H]1O[C@H](O[C@H]2[C@H](O)[C@@H](O)[C@H](O)O[C@@H]2CO)[C@H](O)[C@@H](O)[C@@H]1O [d-(+)-maltose],0.372
